Measured values as given in patent publication US5087704A, “Cyanine compounds” (Asahi Chemical Co., Ltd., priority 1988, dated 1992).

Test: Test for reflectivity (dye layer spin-coated on acrylic resin plate)
Conditions: 30 g/l in diacetone alcohol, spin-coated layer 600 to 700 Å on acrylic resin plate, light of 770 to 800 nm
Description: Each of cyanine dyes as shown below in Table 1 was dissolved in diacetone alcohol to a concentration of 30 g/l. The solution was applied to an acrylic resin plate by a spin coater rotated at 150 rpm to form a layer having a thickness of
600 to 700 Å, followed by drying. The maximum reflectivity of the coated acrylic resin plate was measured on irradiation of light at a wave length of 770 to 800 nm onto the substrate.

Structure (SMILES) | Maximum reflectivity (%)
CCCCN1C(=CC=CC=CC2=[N+](CCCC)c3cc4c(cc3C2(C)C)OCO4)C(C)(C)c2cc3c(cc21)OCO3 [Preparation Example 1] | 45
CCN1C(=CC=CC=CC2=[N+](CC)c3cc4c(cc3C2(C)C)OCO4)C(C)(C)c2cc3c(cc21)OCO3 [Preparation Example 2] | 45
CCOCCN1C(=CC=CC=CC2=[N+](CCOCC)c3cc4c(cc3C2(C)C)CCC4)C(C)(C)c2cc3c(cc21)CCC3 [Preparation Example 7] | 42
CCCCN1C(=CC=CC=CC2=[N+](CCCC)c3cc4c(cc3C2(C)C)CC(C)O4)C(C)(C)c2cc3c(cc21)OC(C)C3 (stereo not drawn) [Preparation Example 5] | 40
CCCCN1C(=CC=CC=CC2=[N+](CCCC)c3cc4c(cc3C2(C)C)OC(C)C4)C(C)(C)c2cc3c(cc21)CC(C)O3 (stereo not drawn) [Preparation Example 4] | 39
CC1(C)C(=CC=CC=CC2=[N+](CCO)c3cc4c(cc3C2(C)C)OCO4)N(CCO)c2cc3c(cc21)OCO3 [Preparation Example 10] | 45
